Weaker means in comparison with the reference protein, sequence or condition of that experiment. Tags and fusion partners may be left off the protein sequences shown.

For data set [1], the target named is T1, EcRecG-WD WT (Escherichia coli MG1655) (UniProt P24230).
T1 sequence (looked up): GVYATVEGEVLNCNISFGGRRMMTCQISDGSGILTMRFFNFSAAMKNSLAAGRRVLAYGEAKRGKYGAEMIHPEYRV
Put plainly: EMSA. The following applies: 100 nM HJ, no saturation up to 640 nM protein, 5 mM EDTA, 50 mM Tris-HCl pH 8.0, 5 mM EDTA, 1 mM DTT, 100 ug/ml BSA, 6% glycerol, on ice 15 min, 6% polyacrylamide gel at room temperature, recombinant protein, residues 59-135, protein details: MBP (N-terminal fusion, pMAL-c2x), folded or branched DNA. (In general: In EMSA bound probe runs differently from free probe, usually more slowly.)

The target of data set [2] is T2, DrRecG-WD FSA Q201F,P202S,W203A (Deinococcus radiodurans R1) (UniProt Q9RT50).
T2 sequence (looked up): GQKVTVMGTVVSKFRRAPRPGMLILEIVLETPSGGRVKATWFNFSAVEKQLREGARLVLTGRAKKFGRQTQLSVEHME
The data set can be described thus: EMSA. The following applies: 100 nM HJ, dramatically reduced vs DrRecG-WD WT, 5 mM EDTA, 50 mM Tris-HCl pH 8.0, 5 mM EDTA, 1 mM DTT, 100 ug/ml BSA, 6% glycerol, on ice 15 min, 6% polyacrylamide gel at room temperature, recombinant protein, residues 158-235, protein details: MBP (N-terminal fusion, pMAL-c2x), folded or branched DNA.

Turning to “GTCGGATCCTCTAGACAGCTCCATGATCACTGGCACTGGTAGAATTCGGC / CAACGTCATAGACGATTACATTGCTACATGGAGCTGTCTAGAGGATCCGA / TGCCGAATTCTACCAGTGCCAGTGATGGACATCTTTGCCACGTTGACCC / TGGGTCAACGTGGGCAAGATGTCCTAGCAATGTAATCGTCTATGACGT [Holliday junction (oligos 1-4)]”, the binding result in data set [1] and in data set [2] was “binds more weakly” in each case.
